PMC6256979
The exact form of at least one protein or probe is not confirmed. For part of these data: A negative result means that nothing was seen under these conditions. For part of these data: Weaker means in comparison with the reference protein, sequence or condition of that experiment.

Chains of the proteins cited; added tags and fusions are not shown. Chains listed by the source or under a name are the forms on record and can include a tag or linker. Residues count along the entry.
UniProt P02769, 25-607: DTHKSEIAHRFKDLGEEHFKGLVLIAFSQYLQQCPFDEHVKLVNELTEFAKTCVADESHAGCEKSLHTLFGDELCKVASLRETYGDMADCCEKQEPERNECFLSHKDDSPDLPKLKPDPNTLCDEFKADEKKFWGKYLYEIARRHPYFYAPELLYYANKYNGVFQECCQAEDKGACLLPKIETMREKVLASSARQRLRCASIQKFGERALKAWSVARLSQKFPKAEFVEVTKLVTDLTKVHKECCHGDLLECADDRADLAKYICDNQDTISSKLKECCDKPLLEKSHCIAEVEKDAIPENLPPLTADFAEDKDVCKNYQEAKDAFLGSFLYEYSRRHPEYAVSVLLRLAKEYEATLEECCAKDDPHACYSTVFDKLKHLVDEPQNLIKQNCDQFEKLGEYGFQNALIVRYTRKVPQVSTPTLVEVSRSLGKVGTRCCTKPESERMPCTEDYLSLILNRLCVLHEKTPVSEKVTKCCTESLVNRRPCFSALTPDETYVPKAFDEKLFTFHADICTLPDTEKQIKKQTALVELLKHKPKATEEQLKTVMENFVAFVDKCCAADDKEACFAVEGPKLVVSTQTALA
VEGF121 (human), one chain, as listed by the source: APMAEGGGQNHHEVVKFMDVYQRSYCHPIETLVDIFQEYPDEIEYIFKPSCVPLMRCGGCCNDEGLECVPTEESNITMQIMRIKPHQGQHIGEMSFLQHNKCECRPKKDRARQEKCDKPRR
VEGF165 (human), one chain, as listed by the source: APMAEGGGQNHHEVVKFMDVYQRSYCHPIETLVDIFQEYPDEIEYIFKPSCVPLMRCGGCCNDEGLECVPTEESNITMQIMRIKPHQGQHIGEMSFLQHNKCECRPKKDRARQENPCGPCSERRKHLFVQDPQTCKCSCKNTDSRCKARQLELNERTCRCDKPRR

What was measured:
[1] = test system: VEGF121 (human); assay: SPR; details: SPR: TBSE (10 mM Tris/HCl, 100 mM NaCl, 0.05 mM EDTA, pH 7.0), 24 °C, VEGF on CM5 chip, 1:1 model; recombinant protein; label: FITC (blotting); folded or branched DNA
[2] = test system: VEGF121 (human); assay: aptamer blotting; details: blotting: TBSTE (TBSE + 0.05% Tween-20), BSA block, 100 nM FITC-aptamer, recombinant protein, label: FITC (blotting), folded or branched DNA
[3] = test system: VEGF165 (human); assay: aptamer blotting; details: blotting: TBSTE (TBSE + 0.05% Tween-20), BSA block, 100 nM FITC-aptamer; recombinant protein; label: FITC (blotting); folded or branched DNA
[4] = test system: VEGF165 (human); assay: SPR; details: SPR: TBSE (10 mM Tris/HCl, 100 mM NaCl, 0.05 mM EDTA, pH 7.0), 24 °C, VEGF on CM5 chip, 1:1 model, recombinant protein, label: FITC (blotting), folded or branched DNA
[5] = test system: PQQGDH (pyrroloquinoline quinone glucose dehydrogenase); assay: aptamer blotting; details: blotting: TBSTE (TBSE + 0.05% Tween-20), BSA block, 100 nM FITC-aptamer; label: FITC (blotting); folded or branched DNA
[6] = biological target: bovine serum albumin (BSA) (bovine) (UniProt P02769); assay: aptamer blotting; details: blotting: TBSTE (TBSE + 0.05% Tween-20), BSA block, 100 nM FITC-aptamer; commercial protein; label: FITC (blotting); folded or branched DNA
[7] = test system: thyroglobulin; assay: aptamer blotting; details: blotting: TBSTE (TBSE + 0.05% Tween-20), BSA block, 100 nM FITC-aptamer; commercial protein; label: FITC (blotting); folded or branched DNA

Sequence | Kd [1] [nM] | binding result [2] | binding result [3] | Kd [4] [nM] | binding result ([4]; TBSE without KCl) | binding result ([4]; folded with 50 mM KCl) | binding result [5] | binding result ([2]; weaker than VEGF165 in this assay) | binding result [6] | binding result [7]
TGTGGGGGTGGACGGGCCGGGTAGA [V7t1] | 1.1 | binds | binds |  |  |  |  |  |  | 
ATACCAGTCTATTCAATTGCACTCTGTGGGGGTGGACGGGCCGGGTAGATAGTATGTGCAATCA [Vap7] | 1 |  | binds | 20 | binds more weakly | binds | no binding | binds more weakly | no binding | no binding
